Values from PubChem BioAssay AID504804 (Drosophila RNAi Screening Center, 2011).
In all, the deposit lists about 19,000 reagents; this is an unselected part of those that have a named target and a result. Over the whole deposit, 47 (0.25%) are marked active. 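Signals are raw, not normalised; exact z-scores behind calls not deposited; actives needed confirmation, so some wells reaching 2 SD are inactive.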 Unmarked entries are inactive. Names joined by + are all predicted targets of the reagent.

- Screen: 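Knock-downs shielding fly cells from apoptosis caused by DNA damage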 (primary screen)
- Cells: Drosophila Kc cells
- Reagent: long dsRNA against Drosophila genes, 0.5 µg dsRNA per well
- Timing: 96 h (48 h knock-down, then 48 h drug)
- Conditions: doxorubicin 5 µg/ml for 48 h, added 48 h after dsRNA
- Read-out: 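Viability measured as cellular ATP by luminescence after 48 h knock-down then 48 h doxorubicin at 5 µg/ml; unnormalised plate counts for each replicate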
- Scale: raw ATP luminescence: higher = more viable cells, protection from doxorubicin
- Rule for the call: 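Active when both duplicate wells lie at least 2 SD above the plate mean and protection is confirmed by rescreening and independent dsRNAs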

Which result is listed for CG30159 [DRSC04981]?
raw ATP luminescence, replicate 1: 62760; raw ATP luminescence, replicate 2: 66130

How did the screen score bru2 (bruno 2) [DRSC01246]?
raw ATP luminescence, replicate 1: 1.94e5; raw ATP luminescence, replicate 2: 1.81e5

For bru2 (bruno 2) [DRSC01247], what does the deposit list?
raw ATP luminescence, replicate 1: 1.96e5; raw ATP luminescence, replicate 2: 2.06e5

For bru2 (bruno 2) [DRSC01249], how do the results read?
raw ATP luminescence, replicate 1: 2.59e5; raw ATP luminescence, replicate 2: 2.27e5

With bru2 (bruno 2) [DRSC01250], what was measured?
raw ATP luminescence, replicate 1: 2.14e5; raw ATP luminescence, replicate 2: 2.11e5

For bru2 (bruno 2) [DRSC02557], what does the deposit list?
raw ATP luminescence, replicate 1: 32210; raw ATP luminescence, replicate 2: 38083

For Ptpmeg (Protein tyrosine phosphatase Meg) [DRSC08684], how do the results read?
raw ATP luminescence, replicate 1: 57620; raw ATP luminescence, replicate 2: 65387

What is on record for CG13766 [DRSC02271]?
raw ATP luminescence, replicate 1: 23993; raw ATP luminescence, replicate 2: 35053

How did the screen score Pstk + CG14210 + Tim9b [DRSC19566]?
raw ATP luminescence, replicate 1: 3.21e5; raw ATP luminescence, replicate 2: 2.77e5

How did the screen score CG12316 [DRSC09879]?
raw ATP luminescence, replicate 1: 38667; raw ATP luminescence, replicate 2: 32733

What did the screen give for Rpn11 (Regulatory particle non-ATPase 11) [DRSC03422]?
raw ATP luminescence, replicate 1: 31070; raw ATP luminescence, replicate 2: 29217

Which result is listed for CG7326 [DRSC20037]?
raw ATP luminescence, replicate 1: 2.35e5; raw ATP luminescence, replicate 2: 2.48e5

For CG6044 [DRSC04522], what was measured?
raw ATP luminescence, replicate 1: 27217; raw ATP luminescence, replicate 2: 43497

For Grip163 [DRSC10538], what does the deposit list?
raw ATP luminescence, replicate 1: 78617; raw ATP luminescence, replicate 2: 74377

What did the screen give for Ugt37C2 (UDP-glycosyltransferase family 37 member C2) [DRSC02247]?
raw ATP luminescence, replicate 1: 64747; raw ATP luminescence, replicate 2: 70313

What is on record for Hmgcr (HMG Coenzyme A reductase) [DRSC16704]?
raw ATP luminescence, replicate 1: 42080; raw ATP luminescence, replicate 2: 48630

With spartin [DRSC12187], what was measured?
raw ATP luminescence, replicate 1: 64443; raw ATP luminescence, replicate 2: 49623

What did the screen give for toe (twin of eyg) [DRSC09174]?
raw ATP luminescence, replicate 1: 1.51e5; raw ATP luminescence, replicate 2: 1.50e5

For toe (twin of eyg) [DRSC09783], how do the results read?
raw ATP luminescence, replicate 1: 54363; raw ATP luminescence, replicate 2: 41457

Sorted by “raw ATP luminescence, replicate 1” (low to high): some entries from above
CG13766 [DRSC02271]: raw ATP luminescence, replicate 1 = 23993; raw ATP luminescence, replicate 2 = 35053
Ptpmeg (Protein tyrosine phosphatase Meg) [DRSC08684]: raw ATP luminescence, replicate 1 = 57620; raw ATP luminescence, replicate 2 = 65387
